Measured values taken from PMC7378220.
Results are given in words; binding and its absence hold for the method and conditions named. Some results given as binding are weak or reduced against the parent protein; the word gives no strength. Sequences can lack the tags named with a protein.

Target: T1, His6-MBP-LEM (LEM-domain of human emerin) (human) (UniProt P50402)
T1 sequence: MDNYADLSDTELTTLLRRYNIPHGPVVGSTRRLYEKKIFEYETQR
Assay: ELISA; ELISA-type HTS assay: MBP-LEM (10 pmol) coated on a high bind plate, BAF (5 pmol) in PBST added with or without compound, then ATTO 425-labelled 270 bp DNA; read-out is the fluorescence of the DNA retained through BAF on the LEM-coated surface; RT; without or with 2 mM GSH; both purified

B1: barrier-to-autointegration factor (BAF), wild type, dephosphorylated and tag-less (protein, UniProt O75531 1-89)
chain: MTTSQKHRDFVAEPMGEKPVGSLAGIGEVLGKKLEERGFDKAYVVLGQFLVLKKDEDLFREWLKDTCGANAKQSRDCFGCLREWCDAFL
binding: binds
